This is one part of the list.

Protein sequences, listed by entry. Tags and fused reporters are not part of them. Lines headed by an entry give the natural chain unless they say otherwise; changes in a name come on top.
UniProt Q13433: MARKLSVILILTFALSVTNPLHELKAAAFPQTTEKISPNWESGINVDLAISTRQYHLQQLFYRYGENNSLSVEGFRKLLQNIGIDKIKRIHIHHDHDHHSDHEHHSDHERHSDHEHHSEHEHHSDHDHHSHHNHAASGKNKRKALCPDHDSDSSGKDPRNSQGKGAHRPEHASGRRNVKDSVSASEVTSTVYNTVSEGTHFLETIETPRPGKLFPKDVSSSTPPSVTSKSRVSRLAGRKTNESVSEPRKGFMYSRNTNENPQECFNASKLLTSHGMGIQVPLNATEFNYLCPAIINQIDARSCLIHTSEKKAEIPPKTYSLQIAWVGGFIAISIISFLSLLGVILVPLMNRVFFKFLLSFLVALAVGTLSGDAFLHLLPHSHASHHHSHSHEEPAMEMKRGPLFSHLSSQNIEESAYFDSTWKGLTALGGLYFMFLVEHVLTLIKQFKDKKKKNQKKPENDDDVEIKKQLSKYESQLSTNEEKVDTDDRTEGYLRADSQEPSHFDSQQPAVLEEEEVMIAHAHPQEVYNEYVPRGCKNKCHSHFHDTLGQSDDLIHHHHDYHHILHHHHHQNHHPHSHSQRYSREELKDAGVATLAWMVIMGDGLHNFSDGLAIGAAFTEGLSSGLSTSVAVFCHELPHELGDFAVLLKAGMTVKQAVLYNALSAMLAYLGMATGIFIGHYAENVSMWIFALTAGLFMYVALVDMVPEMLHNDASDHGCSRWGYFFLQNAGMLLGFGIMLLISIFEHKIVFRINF
UniProt Q9H1N7: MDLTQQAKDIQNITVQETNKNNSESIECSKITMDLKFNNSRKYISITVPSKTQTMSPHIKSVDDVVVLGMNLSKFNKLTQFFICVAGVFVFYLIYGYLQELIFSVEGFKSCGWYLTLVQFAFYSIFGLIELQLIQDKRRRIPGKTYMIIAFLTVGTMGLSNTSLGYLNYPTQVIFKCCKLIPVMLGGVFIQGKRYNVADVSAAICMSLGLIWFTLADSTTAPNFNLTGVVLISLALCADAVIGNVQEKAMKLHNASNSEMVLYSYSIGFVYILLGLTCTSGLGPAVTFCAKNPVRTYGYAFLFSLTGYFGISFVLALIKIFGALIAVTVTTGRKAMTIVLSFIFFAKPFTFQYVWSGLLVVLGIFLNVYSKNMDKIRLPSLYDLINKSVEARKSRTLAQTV
UniProt O95258: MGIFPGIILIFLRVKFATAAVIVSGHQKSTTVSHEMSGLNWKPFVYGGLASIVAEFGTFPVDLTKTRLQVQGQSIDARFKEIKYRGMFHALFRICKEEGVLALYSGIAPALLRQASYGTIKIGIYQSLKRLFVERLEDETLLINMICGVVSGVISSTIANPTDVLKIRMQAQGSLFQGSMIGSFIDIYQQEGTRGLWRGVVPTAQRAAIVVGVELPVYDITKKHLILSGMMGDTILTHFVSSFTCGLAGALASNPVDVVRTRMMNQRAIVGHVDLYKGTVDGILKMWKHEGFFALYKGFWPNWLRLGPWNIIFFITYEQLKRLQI
UniProt Q8TAD4: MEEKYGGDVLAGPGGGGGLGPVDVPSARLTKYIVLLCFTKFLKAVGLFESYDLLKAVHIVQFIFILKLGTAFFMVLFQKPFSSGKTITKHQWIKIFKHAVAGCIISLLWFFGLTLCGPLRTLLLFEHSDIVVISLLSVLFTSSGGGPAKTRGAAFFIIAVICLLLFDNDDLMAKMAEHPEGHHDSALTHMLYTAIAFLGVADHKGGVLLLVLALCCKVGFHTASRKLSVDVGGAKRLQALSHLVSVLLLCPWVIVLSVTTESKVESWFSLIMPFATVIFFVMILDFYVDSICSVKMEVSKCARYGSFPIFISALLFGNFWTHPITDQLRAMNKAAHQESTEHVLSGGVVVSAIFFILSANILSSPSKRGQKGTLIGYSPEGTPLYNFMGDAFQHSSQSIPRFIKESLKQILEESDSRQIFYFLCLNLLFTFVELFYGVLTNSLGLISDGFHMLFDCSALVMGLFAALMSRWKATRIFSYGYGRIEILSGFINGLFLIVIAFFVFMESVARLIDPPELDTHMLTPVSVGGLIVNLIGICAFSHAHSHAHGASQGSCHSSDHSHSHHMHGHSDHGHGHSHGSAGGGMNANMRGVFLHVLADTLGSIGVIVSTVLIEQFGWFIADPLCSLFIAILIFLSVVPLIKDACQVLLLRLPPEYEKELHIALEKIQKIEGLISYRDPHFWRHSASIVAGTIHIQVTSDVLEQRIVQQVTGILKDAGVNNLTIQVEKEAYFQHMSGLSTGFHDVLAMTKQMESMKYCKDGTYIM
UniProt P53007, whole entry, looked up: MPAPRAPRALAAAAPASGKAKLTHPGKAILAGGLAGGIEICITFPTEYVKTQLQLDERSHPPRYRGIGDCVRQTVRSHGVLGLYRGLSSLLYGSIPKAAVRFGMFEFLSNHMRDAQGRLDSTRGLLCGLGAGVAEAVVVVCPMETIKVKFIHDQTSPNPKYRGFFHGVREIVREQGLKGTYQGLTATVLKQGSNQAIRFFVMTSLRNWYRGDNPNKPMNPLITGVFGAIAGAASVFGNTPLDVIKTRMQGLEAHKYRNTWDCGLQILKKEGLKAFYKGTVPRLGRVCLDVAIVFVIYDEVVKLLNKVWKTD
UniProt O60779: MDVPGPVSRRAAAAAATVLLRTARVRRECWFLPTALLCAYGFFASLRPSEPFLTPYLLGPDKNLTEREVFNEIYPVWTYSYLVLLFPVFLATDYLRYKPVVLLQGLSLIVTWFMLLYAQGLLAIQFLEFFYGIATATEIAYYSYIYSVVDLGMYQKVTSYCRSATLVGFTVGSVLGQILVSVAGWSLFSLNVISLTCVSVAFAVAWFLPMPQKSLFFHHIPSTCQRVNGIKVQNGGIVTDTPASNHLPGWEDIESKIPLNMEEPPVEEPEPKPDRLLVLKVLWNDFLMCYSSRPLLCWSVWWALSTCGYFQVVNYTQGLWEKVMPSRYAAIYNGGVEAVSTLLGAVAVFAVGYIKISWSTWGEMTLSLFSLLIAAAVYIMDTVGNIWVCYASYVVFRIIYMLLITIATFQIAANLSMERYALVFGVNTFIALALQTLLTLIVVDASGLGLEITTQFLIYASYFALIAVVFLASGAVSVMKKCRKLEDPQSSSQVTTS
UniProt L0R6Q1: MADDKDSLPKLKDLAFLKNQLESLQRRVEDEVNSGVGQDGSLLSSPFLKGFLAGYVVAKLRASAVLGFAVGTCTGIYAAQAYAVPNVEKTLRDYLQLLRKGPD
UniProt Q9H936: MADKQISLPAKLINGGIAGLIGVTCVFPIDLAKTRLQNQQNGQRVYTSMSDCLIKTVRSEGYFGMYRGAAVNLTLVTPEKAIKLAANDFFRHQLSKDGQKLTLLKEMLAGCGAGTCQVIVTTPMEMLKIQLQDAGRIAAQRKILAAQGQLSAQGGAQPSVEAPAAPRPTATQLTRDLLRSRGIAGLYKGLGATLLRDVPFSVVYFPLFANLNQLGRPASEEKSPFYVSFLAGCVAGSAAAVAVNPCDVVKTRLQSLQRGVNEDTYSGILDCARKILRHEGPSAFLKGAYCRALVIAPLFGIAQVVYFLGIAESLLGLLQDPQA
UniProt Q6KCM7: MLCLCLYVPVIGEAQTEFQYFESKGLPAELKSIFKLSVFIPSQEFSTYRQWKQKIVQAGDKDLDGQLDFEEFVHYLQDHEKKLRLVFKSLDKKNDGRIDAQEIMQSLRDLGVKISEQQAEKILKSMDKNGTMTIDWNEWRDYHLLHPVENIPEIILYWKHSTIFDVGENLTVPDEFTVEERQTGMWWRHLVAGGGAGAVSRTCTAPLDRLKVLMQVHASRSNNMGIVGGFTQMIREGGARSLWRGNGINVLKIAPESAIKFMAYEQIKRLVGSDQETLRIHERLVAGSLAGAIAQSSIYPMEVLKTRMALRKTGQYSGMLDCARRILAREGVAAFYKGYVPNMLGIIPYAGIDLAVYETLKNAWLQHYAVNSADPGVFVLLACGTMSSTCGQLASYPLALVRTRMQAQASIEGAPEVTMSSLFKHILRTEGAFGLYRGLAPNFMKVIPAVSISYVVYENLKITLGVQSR
UniProt P02730: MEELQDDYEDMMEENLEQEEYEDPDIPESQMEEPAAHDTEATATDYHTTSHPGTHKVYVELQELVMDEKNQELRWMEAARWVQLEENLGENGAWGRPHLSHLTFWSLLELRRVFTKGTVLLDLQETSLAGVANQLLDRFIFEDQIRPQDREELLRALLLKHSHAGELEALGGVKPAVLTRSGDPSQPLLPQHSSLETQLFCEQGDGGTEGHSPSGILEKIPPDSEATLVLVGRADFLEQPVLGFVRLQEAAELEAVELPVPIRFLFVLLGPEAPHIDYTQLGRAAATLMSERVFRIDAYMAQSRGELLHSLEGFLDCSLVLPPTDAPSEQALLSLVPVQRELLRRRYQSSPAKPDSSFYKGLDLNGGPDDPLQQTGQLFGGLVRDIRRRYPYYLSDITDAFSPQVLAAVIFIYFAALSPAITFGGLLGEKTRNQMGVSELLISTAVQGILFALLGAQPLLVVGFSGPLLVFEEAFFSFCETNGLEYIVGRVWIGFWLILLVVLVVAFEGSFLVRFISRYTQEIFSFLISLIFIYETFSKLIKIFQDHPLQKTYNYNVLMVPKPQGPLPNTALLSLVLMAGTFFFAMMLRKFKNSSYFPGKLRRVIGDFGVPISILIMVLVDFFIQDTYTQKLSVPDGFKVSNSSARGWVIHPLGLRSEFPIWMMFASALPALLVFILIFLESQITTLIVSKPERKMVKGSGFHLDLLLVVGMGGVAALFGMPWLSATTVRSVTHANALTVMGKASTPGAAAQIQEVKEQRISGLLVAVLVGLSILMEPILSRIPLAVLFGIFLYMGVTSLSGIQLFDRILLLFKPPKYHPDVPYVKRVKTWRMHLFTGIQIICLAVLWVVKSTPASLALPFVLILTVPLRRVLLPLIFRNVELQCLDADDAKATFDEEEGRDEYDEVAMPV
UniProt Q6NUK1: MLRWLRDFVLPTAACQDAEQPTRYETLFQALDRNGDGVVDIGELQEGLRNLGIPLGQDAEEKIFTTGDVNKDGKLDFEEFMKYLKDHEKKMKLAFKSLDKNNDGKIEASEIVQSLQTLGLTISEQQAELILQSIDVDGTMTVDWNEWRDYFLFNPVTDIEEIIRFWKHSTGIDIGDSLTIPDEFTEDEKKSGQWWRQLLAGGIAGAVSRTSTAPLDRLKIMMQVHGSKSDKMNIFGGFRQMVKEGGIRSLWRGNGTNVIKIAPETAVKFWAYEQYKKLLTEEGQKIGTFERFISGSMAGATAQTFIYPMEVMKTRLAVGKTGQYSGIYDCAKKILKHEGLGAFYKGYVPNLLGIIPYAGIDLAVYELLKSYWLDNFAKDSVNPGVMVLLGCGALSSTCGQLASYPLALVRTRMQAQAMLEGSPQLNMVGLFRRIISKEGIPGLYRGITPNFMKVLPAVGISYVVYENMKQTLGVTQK
UniProt Q9H2H9: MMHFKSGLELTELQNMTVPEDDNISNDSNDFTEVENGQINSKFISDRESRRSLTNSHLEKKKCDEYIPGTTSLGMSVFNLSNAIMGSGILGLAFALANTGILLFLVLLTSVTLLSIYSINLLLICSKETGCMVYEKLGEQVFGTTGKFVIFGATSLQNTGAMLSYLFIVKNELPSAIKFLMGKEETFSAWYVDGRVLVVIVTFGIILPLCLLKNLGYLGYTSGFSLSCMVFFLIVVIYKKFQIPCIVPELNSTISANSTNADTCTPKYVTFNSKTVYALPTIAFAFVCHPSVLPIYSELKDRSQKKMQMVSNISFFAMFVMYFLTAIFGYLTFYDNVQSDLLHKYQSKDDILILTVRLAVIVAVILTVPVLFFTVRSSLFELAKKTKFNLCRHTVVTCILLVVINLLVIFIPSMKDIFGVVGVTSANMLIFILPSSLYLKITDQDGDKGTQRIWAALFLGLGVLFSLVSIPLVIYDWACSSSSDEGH
UniProt Q9HC21: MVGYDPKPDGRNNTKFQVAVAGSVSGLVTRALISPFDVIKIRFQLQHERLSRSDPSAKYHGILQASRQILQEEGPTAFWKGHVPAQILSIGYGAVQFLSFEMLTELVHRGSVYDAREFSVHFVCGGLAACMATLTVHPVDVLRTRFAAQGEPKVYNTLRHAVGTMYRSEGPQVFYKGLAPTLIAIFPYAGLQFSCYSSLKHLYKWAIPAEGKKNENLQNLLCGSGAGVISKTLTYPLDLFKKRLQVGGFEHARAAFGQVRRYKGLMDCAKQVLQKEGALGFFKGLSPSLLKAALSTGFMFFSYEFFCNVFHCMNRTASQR
UniProt Q14542: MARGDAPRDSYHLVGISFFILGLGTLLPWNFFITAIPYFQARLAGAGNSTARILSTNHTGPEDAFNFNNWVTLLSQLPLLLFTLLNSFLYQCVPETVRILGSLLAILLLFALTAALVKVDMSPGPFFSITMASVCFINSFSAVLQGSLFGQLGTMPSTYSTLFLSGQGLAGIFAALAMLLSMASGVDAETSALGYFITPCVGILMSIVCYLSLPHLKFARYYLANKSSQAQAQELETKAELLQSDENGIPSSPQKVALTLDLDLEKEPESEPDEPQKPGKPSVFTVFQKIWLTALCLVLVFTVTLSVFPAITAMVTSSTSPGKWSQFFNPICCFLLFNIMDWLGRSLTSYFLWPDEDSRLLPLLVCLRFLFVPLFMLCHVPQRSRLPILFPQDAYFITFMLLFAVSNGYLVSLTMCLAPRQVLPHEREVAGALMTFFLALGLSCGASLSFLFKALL

Compound in the assay: c1cn2cc(-c3ccc4cn[nH]c4c3)nc(Nc3ccc(N4CCOCC4)cc3)c2n1 [entospletinib]
In words: log2 fold change, soluble protein after heating vs DMSO (PISA); higher = thermal stabilisation; K562 cells, 10 uM, 30 min; active = over 0.2 and 3.5 SD of the protein, either way, in both replicates (recomputed). The method in brief:
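K562 cells (2×10^6 cells/mL) were treated with 10 μM compound for 30 min, and aliquots were heated for 3 min over 48°C-58°C. Pooled aliquots were extracted in PBS with 0.5% NP-40 at 4°C, and the supernatant after 21,000xg for 90 min was measured by TMTpro 16plex LC-MS/MS with channel sums equalised. Reported thermal stability, relative to control samples and from duplicates, is a log2 fold change.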
Turning to SLC25A17 (UniProt O43808), the log2 fold change was inactive: -0.004.
The value for SLC2A4 (UniProt P14672) was inactive: 0.02; that for SLC39A6 (UniProt Q13433) was inactive: -0.095.
Turning to SLC45A4 isoform 3 (UniProt Q5BKX6), the log2 fold change was inactive: 0.055.
For SLC35B3 (UniProt Q9H1N7), the log2 fold change was inactive: 0.073.
For the target SLC25A6 (UniProt P12236), the log2 fold change was inactive: -0.002.
As for SLC25A14 isoform 3 (UniProt O95258), the figure is inactive: 0.011.
As for SLC6A9 (UniProt P48067), the figure is inactive: -0.043; as for SLC38A10 (UniProt Q9HBR0), inactive: -0.03; as for SLC25A46 (UniProt Q96AG3), inactive: 0.006.
Turning to SLC41A3 isoform 9 (UniProt Q96GZ6), the log2 fold change was inactive: -0.197.
The value for SLC30A5 (UniProt Q8TAD4) was inactive: -0.034; that for SLC10A7 isoform 1 (UniProt Q0GE19) was inactive: -0.033.
The value for SLC20A2 (UniProt Q08357) was inactive: 0.031.
On to SLC25A1 (UniProt P53007), for which the log2 fold change was inactive: -0.016.
The value for SLC19A2 (UniProt O60779) was inactive: -0.015; that for SLC35A4 (UniProt L0R6Q1) was inactive: 0.079.
The value for SLC25A22 (UniProt Q9H936) was inactive: 0; that for SLC25A51 (UniProt Q9H1U9) was inactive: 0.035.
As for SLC25A44 (UniProt Q96H78), the figure is inactive: -0.08.
As for SLC30A6 isoform 2 (UniProt Q6NXT4), the log2 fold change was inactive: -0.046.
The value for SLC25A16 (UniProt P16260) was inactive: 0.048.
The value for SLC25A25 isoform 3 (UniProt Q6KCM7) was inactive: -0.012.
The value for SLC25A15 (UniProt Q9Y619) was inactive: -0.02; that for SLC4A1 (UniProt P02730) was inactive: 0.022.
On to SLC30A9 (UniProt Q6PML9), for which the log2 fold change was inactive: -0.029.
For SLC25A24 (UniProt Q6NUK1), the log2 fold change was inactive: 0.024.
As for SLC43A1 (UniProt O75387), the figure is inactive: 0.056.
As for SLC38A1 (UniProt Q9H2H9), the figure is inactive: -0.016; as for SLC25A19 (UniProt Q9HC21), inactive: 0.037; as for SLC39A11 (UniProt Q8N1S5), active: -0.458.
As for SLC25A32 (UniProt Q9H2D1), the log2 fold change was inactive: -0.029.
The value for SLC29A2 (UniProt Q14542) was inactive: -0.015.

Values taken from the supplement of paper PMC10849652.
